# In paper PMC9098222:
# Sequences of proteins named here, by UniProt entry; tags and fusion partners are left off. Residues count along the entry.
# UniProt O75348: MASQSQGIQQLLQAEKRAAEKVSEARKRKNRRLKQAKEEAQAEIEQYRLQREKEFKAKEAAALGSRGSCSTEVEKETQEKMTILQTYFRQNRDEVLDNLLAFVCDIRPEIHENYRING
# UniProt Q9NWH9: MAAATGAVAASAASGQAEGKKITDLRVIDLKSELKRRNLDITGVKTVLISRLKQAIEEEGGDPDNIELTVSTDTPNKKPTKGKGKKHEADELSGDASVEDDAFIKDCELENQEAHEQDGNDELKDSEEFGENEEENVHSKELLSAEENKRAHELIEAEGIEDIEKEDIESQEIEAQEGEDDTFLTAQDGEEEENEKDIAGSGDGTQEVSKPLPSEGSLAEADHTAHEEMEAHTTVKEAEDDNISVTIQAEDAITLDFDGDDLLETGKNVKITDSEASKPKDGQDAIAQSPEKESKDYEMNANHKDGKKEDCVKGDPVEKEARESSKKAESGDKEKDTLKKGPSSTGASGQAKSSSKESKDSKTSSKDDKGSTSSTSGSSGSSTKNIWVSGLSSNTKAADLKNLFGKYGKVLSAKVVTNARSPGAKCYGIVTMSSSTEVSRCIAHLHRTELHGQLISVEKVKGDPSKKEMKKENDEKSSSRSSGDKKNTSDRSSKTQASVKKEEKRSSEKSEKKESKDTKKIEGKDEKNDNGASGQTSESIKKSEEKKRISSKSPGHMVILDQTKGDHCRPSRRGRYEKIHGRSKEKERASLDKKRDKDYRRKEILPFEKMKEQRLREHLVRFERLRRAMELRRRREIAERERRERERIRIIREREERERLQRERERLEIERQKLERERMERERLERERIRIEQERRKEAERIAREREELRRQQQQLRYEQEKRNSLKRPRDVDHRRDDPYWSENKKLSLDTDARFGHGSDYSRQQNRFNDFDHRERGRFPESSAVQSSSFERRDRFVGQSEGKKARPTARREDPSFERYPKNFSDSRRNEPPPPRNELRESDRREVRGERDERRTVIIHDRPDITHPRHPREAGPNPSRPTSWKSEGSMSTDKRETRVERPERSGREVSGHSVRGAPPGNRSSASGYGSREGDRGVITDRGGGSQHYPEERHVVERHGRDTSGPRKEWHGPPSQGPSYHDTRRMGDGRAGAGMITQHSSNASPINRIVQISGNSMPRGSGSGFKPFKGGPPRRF
# UniProt A2AJT9: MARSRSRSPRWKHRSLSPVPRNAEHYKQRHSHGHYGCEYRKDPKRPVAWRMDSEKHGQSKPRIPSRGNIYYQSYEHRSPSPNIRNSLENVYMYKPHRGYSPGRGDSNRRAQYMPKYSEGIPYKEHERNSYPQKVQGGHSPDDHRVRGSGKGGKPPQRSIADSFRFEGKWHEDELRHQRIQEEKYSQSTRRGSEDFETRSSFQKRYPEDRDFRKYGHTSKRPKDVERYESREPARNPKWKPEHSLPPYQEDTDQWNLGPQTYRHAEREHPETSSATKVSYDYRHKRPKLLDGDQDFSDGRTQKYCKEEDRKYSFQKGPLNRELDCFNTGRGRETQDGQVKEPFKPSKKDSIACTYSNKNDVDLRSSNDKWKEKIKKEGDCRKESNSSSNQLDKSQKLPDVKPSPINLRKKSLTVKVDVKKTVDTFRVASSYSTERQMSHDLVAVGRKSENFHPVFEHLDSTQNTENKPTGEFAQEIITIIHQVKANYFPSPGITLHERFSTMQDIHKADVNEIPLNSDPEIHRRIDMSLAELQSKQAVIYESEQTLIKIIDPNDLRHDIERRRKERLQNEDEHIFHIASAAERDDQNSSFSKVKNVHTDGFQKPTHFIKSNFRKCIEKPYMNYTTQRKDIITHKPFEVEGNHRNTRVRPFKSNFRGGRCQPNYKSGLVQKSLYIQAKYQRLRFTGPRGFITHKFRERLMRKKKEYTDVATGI
# UniProt P55854, residues 1-92: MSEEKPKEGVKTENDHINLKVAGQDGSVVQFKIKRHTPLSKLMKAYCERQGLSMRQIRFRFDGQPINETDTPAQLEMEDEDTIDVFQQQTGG
# Results are given in words; binding and its absence hold for the method and conditions named. Binding seen in cells or lysates may run through a third protein. These calls come from enrichment with a bait or labelling near it, and not all partners need be listed.
# T1: IRS4 (WT)-PafA (human) (UniProt O14654)
# T1 sequence: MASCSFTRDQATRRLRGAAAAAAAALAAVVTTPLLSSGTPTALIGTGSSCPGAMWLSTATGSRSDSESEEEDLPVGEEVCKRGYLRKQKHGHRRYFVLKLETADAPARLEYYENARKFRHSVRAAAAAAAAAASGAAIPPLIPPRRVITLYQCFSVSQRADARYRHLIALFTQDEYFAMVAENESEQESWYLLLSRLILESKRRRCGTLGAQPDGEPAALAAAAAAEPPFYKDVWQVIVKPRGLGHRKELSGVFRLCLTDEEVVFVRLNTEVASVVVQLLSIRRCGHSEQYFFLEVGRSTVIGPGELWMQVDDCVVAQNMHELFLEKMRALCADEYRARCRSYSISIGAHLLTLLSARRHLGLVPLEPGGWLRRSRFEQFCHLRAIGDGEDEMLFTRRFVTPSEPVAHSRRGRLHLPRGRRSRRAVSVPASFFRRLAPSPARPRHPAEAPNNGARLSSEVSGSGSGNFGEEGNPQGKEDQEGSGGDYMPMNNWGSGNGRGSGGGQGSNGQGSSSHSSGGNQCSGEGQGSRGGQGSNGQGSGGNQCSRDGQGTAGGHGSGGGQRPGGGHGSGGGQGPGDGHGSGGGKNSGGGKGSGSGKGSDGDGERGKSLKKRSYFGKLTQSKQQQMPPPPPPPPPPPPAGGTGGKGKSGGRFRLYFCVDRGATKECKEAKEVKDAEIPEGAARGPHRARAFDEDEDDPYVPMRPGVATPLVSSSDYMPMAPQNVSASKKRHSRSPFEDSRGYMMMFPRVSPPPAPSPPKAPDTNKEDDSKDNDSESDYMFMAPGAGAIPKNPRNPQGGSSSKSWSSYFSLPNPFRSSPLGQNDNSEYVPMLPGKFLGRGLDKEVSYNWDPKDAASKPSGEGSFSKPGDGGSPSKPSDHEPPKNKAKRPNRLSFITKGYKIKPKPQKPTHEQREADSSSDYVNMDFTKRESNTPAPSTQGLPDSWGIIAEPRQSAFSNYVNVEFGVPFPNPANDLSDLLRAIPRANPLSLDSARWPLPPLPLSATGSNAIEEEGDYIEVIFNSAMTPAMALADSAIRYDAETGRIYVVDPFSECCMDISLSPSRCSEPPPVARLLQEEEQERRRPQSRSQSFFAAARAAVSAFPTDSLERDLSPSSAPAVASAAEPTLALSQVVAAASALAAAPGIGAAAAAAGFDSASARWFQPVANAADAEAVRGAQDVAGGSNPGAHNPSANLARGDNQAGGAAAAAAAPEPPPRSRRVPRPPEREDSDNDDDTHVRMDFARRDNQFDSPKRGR
# Target: T1, IRS4 (WT)-PafA (human)
# Assay: proximity labelling; PUP-IT: IRS4 (WT)-PafA or IRS4 (YF)-PafA stably expressed in iPup OVCAR-5 cells, doxycycline 2 μg/ml and biotin 4 μM for 24 hr, tagged proteins identified by mass spectrometry, triplicates, LFQ intensity of WT against YF mutants
row,Molecule,binding
1,ATP6V1G1 (from UniProt O75348 1-118),binds
2,SLTM (from UniProt Q9NWH9 1-1034),binds
3,CXorf23 (from UniProt A2AJT9 1-711),binds
4,SUMO3 (from UniProt P55854 1-92),binds
5,"C18orf25 (protein, UniProt Q96B23 1-404) MKMEEAVGKVEELIESEAPPKASEQETAKEEDGSVELESQVQKDGVADSTVISSMPCLLMELRRDSSESQLASTESDKPTTGRVYESDSSNHCMLSPSSSGHLADSDTLSSAEENEPSQAETAVEGDPSGVSGATVGRKSRRSRSESETSTMAAKKNRQSSDKQNGRVAKVKGHRSQKHKERIRLLRQKREAAARKKYNLLQDSSTSDSDLTCDSSTSSSDDDEEVSGSSKTITAEIPDGPPVVAHYDMSDTNSDPEVVNVDNLLAAAVVQEHSNSVGGQDTGATWRTSGLLEELNAEAGHLDPGFLASDKTSAGNAPLNEEINIASSDSEVEIVGVQEHARCVHPRGGVIQSVSSWKHGSGTQYVSTRQTQSWTAVTPQQTWASPAEVVDLTLDEDSRRKYLL",binds
